# Experimental data from US8003649B2 (AstraZeneca AB, priority 2007, dated 2011).
# Protein sequences, listed by entry. Tags and fused reporters are not part of them.
# UniProt P10275, whole entry T878A: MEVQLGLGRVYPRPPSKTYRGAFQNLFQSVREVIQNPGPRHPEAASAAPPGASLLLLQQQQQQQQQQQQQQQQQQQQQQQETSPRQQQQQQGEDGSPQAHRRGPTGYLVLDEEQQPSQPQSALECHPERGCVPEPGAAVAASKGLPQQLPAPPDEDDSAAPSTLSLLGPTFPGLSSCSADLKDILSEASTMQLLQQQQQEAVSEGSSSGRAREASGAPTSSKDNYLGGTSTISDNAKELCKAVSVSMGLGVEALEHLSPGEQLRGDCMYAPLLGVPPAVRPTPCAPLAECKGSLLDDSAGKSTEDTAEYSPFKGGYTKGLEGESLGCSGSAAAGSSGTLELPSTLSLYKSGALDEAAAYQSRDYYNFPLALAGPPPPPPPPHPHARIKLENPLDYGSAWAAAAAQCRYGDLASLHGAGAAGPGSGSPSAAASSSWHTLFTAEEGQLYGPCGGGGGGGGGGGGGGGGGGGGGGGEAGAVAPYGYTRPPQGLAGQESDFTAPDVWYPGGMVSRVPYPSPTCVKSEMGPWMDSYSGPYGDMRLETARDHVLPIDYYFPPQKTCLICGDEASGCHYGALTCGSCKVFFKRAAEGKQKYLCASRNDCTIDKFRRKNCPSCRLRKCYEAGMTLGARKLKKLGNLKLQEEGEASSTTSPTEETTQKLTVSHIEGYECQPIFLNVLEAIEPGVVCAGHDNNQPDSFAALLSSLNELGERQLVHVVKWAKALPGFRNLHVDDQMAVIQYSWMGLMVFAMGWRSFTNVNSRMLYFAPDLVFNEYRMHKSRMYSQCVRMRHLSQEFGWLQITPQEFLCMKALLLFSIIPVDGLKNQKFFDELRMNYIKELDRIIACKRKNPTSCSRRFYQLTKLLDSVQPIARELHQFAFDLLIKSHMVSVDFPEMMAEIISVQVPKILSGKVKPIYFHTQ
# Target: Androgen Receptor (AR) (Homo sapiens, UniProt P10275, T878A)
# Experiment: LNCaP Androgen Receptor Down-regulation Cell Assay (immunofluorescence end point)
# Assay type: cell-based
# Details: read-out: Androgen Receptor Down-regulation Assay (a) IC50/μM; LNCaP prostate carcinoma cells, compound incubation 20-22 hours, 50% reduction of the AR signal
row,IC50 [µM],Compound
1,> 13,FC(F)(F)c1nnc2ccc(N3CCC(Oc4ccc(Br)cn4)CC3)nn12 [Example 721]
2,1.4,O=C(c1ccc(OC2CCN(c3ccc4nnc(C(F)(F)F)n4n3)CC2)cc1)N1CCNCC1
3,7.4,O=C(NCCO)c1ccc(OC2CCN(c3ccc4nnc(C(F)(F)F)n4n3)CC2)cc1
4,1.3,Fc1ccc(CN2CCN(c3ccc4nnc(C(F)(F)Cl)n4n3)CC2)cc1
5,1.3,FC(F)(F)c1nnc2ccc(N3CC4CN(Cc5cncc(Cl)c5)CC4C3)nn12 (stereo not shown)
6,1.8,O=S(=O)(c1ccccc1F)N1CCN(c2ccc3nnc(C(F)(F)F)n3n2)CC1
7,1.6,O=S(=O)(c1cccc(F)c1)N1CCN(c2ccc3nnc(C(F)(F)F)n3n2)CC1
8,1.9,N#Cc1ccc(CN2CCN(c3ccc4nnc(C(F)(F)F)n4n3)CC2)cc1F
9,11,Fc1cnc(Cl)c(CN2CCN(c3ccc4nnc(C(F)(F)F)n4n3)CC2)c1
10,13,COc1ccc(S(=O)(=O)N2CCCN(c3ccc4nnc(C(F)(F)F)n4n3)CC2)cc1
11,17,FC(F)(F)c1nnc2ccc(N3CCN(Cc4c[nH]c5cccnc45)CC3)nn12
12,1.1,N#Cc1cc(CN2CCN(c3ccc4nnc(C(F)(F)F)n4n3)CC2)ccc1F
13,3.2,CN1CCC(Oc2ccc(N3CCN(c4ccc5nnc(C(F)(F)F)n5n4)CC3)cc2)CC1
14,3.9,FC(F)(F)c1cccc(OCC2CCN(c3ccc4nnc(C(F)(F)F)n4n3)CC2)c1
15,2.2,Cc1cc(CNC(=O)c2ccc(OC3CCN(c4ccc5nnc(C(F)(F)F)n5n4)CC3)cc2)no1
16,3,CC(F)(F)c1nnc2ccc(N3CCN(Cc4ccc(F)cc4)CC3)nn12
17,8.2,O=S(=O)(c1cccc(F)c1)N1CC2CN(c3ccc4nnc(C(F)(F)F)n4n3)CC2C1 (stereo not shown)
18,0.82,O=C(Nc1ccc(C2CCN(c3ccc4nnc(C(F)(F)F)n4n3)CC2)cc1)C1CCOCC1
19,1.4,COc1ccccc1C1CCN(c2ccc3nnc(C(F)(F)F)n3n2)CC1
20,0.83,Cc1cc(COc2ccc(OC3CCN(c4ccc5nnc(C(F)(F)F)n5n4)CC3)cc2)no1
21,15,FC(F)(F)c1nnc2ccc(N3CCC(COCCN4CCOCC4)CC3)nn12
22,4.5,COc1cc(CN2CCN(c3ccc4nnc(C(F)(F)F)n4n3)CC2)ccc1F
23,1.5,CCOCC1CCN(c2ccc3nnc(C(F)(F)F)n3n2)CC1
24,2.8,COc1ccc(S(=O)(=O)N2CCN(c3ccc4nnc(C(F)(F)F)n4n3)CC2)cc1OC
25,5.3,Fc1ccc(CN2CCN(c3ccc4nnc(C(F)F)n4n3)CC2)cc1
26,22,C[C@H]1CN(Cc2cc(F)cnc2Cl)CCN1c1ccc2nnc(C(F)(F)F)n2n1
27,4.2,CCNC(=O)c1ccc(OC2CCN(c3ccc4nnc(C(F)(F)F)n4n3)CC2)cc1
28,21,COc1cccc(S(=O)(=O)N2CCCN(c3ccc4nnc(C(F)(F)F)n4n3)CC2)c1

# The structures given here were assigned with low confidence; some may be wrong.
